Measured values published in the supplement of paper PMC12823440, “Inhibitors supercharge kinase turnover through native proteolytic circuits” (Nature, 2025).
Structures can show the parent of a compound that is named as a salt. This is one part of the list. Hit calls seldom repeat between salt and free forms of one compound.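 Kinases, fused to nanoluciferase, were expressed in K562 cells; luminescence was measured every 4 h from 2 to 18 h as percent of control (DMSO = 100%, positive control = 0%). A time point is decreased if signal falls significantly (2 sigma). Hits were called by the authors by a rule that is not shown; the count of time points alone does not decide it.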

Protein sequences, listed by entry. Tags and fused reporters are not part of them. Lines headed by an entry give the natural chain unless they say otherwise; changes in a name come on top.
UniProt Q9UQM7, whole entry: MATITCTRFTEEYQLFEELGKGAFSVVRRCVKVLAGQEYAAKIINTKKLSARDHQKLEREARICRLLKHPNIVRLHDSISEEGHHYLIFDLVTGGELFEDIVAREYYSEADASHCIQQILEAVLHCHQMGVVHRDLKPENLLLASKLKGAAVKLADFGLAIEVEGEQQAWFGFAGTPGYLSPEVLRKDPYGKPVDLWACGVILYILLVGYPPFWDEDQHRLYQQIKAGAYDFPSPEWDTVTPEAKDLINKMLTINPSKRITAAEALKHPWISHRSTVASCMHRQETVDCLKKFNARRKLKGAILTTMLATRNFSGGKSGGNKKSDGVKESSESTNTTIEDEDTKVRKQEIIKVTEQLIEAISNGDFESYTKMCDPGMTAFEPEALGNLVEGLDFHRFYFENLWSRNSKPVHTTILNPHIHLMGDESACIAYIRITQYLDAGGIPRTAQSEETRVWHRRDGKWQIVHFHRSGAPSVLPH
UniProt Q15131: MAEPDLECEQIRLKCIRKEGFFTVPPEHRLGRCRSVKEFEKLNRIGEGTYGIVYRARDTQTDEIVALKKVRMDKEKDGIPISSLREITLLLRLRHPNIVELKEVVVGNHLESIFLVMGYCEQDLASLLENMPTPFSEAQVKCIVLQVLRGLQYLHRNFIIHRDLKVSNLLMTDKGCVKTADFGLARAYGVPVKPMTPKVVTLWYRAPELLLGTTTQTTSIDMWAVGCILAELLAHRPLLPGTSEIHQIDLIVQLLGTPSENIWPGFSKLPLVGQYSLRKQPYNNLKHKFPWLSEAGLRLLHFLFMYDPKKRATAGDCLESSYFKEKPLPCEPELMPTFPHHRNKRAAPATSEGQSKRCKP
UniProt Q00526: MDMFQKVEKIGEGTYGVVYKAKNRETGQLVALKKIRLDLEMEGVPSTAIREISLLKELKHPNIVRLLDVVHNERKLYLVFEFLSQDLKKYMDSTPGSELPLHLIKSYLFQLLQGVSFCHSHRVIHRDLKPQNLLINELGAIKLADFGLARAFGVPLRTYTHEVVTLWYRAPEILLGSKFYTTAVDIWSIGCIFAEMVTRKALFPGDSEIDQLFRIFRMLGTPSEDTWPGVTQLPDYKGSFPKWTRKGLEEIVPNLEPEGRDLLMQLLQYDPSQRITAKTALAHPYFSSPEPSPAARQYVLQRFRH
UniProt P11802: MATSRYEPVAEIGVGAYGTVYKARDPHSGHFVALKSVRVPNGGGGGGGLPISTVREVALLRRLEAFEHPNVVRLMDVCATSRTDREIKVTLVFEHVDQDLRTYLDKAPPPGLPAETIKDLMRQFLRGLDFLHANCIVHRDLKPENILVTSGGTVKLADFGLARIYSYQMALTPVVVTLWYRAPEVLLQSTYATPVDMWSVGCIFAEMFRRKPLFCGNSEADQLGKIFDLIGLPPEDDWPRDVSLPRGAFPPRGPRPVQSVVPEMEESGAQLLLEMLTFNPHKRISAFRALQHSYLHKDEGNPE
UniProt Q00535, whole entry, looked up: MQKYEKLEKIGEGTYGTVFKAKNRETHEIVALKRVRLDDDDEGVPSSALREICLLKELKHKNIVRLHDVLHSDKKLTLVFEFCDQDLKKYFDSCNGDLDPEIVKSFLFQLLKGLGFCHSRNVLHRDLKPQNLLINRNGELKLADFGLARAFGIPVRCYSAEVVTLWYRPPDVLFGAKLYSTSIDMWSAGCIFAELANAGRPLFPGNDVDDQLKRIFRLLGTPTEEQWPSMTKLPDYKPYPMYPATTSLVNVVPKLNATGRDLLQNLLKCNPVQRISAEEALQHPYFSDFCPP
UniProt Q00534, whole entry: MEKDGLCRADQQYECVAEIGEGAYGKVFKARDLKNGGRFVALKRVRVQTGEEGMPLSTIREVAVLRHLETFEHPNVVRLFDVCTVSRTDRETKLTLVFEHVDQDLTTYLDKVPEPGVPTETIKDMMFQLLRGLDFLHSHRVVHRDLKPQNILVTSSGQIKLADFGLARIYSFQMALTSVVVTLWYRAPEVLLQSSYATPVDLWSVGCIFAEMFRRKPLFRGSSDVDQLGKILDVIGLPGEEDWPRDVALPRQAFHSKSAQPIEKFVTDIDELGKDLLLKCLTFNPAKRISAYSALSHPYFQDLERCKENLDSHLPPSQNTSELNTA
UniProt P50613: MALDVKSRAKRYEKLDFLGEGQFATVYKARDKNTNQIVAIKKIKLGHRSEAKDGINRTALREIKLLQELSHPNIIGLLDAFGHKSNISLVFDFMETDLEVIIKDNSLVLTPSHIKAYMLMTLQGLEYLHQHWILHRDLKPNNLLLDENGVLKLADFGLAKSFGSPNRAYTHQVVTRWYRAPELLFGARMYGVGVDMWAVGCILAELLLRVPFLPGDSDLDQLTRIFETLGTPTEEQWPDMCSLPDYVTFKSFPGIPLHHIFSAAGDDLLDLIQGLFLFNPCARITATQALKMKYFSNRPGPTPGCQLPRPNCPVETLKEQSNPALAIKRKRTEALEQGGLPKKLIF
UniProt P50750, whole entry: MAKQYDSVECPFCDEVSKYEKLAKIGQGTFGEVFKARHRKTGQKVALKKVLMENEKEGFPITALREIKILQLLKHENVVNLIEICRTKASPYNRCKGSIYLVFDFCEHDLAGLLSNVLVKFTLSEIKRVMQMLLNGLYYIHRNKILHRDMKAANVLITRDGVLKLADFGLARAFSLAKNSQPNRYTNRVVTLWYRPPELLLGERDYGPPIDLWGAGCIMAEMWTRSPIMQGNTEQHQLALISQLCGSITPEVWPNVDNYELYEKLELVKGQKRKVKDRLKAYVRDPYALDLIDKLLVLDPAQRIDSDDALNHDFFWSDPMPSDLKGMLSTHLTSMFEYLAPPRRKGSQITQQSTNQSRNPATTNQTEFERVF
UniProt O96017, whole entry: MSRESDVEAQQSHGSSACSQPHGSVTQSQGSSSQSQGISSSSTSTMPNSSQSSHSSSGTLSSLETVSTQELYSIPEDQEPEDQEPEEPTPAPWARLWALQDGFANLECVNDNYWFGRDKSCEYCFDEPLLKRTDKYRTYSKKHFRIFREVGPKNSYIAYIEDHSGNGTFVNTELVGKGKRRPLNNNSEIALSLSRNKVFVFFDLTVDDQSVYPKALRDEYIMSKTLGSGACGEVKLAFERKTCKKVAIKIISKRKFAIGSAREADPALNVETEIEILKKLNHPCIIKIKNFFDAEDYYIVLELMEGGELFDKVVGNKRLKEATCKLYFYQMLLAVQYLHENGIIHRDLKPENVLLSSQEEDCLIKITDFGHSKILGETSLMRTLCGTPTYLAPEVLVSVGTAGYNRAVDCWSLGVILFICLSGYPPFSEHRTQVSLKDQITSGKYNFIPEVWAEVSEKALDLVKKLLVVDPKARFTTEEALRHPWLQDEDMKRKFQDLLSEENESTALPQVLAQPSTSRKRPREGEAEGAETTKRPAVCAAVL
UniProt P07333, whole entry: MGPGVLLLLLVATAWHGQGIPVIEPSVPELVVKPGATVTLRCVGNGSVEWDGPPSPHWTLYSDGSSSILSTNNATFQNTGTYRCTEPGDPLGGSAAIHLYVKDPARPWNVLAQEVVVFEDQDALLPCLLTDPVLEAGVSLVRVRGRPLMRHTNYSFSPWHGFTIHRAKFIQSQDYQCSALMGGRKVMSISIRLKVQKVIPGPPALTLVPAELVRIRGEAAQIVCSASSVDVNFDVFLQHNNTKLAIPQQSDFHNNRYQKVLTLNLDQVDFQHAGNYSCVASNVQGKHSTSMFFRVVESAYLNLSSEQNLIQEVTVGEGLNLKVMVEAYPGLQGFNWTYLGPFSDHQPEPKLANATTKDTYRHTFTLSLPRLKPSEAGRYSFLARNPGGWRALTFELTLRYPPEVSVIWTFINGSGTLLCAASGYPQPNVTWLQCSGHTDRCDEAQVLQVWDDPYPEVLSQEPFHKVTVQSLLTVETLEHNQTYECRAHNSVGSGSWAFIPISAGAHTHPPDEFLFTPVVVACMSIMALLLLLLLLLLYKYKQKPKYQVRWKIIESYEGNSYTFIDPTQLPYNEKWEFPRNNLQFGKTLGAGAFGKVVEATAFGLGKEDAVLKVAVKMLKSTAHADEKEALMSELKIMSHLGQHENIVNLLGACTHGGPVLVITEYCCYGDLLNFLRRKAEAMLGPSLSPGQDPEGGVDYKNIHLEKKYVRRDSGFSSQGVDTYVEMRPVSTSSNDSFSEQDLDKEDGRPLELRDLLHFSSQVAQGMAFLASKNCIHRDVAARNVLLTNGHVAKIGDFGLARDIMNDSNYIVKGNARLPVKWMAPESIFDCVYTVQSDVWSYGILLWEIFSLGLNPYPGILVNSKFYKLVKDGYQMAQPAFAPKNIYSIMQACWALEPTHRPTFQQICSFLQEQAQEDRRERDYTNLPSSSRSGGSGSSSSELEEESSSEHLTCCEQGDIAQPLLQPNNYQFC
UniProt P48729: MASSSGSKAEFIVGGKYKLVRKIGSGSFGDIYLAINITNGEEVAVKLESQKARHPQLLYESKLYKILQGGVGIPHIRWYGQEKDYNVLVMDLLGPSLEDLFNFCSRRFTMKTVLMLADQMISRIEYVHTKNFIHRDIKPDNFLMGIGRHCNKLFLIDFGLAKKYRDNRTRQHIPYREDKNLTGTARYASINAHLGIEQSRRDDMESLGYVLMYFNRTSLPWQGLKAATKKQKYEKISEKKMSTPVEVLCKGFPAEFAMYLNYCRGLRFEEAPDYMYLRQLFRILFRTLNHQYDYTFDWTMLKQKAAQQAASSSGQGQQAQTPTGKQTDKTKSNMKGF
UniProt P48730: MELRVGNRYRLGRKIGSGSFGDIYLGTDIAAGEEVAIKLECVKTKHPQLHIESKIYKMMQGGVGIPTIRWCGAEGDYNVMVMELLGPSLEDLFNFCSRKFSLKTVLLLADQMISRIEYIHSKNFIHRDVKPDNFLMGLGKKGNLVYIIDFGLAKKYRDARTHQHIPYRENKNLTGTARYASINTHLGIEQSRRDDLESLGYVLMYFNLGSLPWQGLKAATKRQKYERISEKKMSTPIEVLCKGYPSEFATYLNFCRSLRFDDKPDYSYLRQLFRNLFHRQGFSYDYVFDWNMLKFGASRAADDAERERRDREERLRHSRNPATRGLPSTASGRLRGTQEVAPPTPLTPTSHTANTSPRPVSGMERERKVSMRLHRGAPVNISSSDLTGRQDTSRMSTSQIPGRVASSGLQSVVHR
UniProt Q08345: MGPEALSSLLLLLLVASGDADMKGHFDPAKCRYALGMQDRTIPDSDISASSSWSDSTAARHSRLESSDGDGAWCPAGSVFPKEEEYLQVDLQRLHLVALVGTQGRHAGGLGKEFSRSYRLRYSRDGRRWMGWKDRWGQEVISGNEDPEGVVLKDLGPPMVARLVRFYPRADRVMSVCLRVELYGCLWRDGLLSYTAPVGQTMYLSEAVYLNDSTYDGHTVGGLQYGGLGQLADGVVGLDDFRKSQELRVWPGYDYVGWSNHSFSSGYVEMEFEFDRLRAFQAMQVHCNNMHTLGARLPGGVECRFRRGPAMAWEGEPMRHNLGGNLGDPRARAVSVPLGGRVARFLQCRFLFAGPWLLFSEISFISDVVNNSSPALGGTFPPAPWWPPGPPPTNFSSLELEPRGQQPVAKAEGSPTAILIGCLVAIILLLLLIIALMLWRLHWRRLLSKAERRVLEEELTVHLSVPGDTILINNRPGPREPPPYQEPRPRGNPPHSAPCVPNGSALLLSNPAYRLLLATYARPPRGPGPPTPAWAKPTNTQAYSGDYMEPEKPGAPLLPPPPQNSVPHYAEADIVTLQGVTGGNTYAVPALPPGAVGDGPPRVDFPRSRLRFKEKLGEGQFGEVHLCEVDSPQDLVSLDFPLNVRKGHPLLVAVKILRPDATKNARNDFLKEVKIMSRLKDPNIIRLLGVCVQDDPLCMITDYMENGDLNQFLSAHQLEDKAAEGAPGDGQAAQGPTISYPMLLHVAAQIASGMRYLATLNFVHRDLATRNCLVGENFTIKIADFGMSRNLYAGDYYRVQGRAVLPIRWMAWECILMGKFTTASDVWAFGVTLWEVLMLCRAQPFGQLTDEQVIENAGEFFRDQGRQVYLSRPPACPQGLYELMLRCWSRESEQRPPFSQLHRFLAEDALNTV
UniProt Q92630: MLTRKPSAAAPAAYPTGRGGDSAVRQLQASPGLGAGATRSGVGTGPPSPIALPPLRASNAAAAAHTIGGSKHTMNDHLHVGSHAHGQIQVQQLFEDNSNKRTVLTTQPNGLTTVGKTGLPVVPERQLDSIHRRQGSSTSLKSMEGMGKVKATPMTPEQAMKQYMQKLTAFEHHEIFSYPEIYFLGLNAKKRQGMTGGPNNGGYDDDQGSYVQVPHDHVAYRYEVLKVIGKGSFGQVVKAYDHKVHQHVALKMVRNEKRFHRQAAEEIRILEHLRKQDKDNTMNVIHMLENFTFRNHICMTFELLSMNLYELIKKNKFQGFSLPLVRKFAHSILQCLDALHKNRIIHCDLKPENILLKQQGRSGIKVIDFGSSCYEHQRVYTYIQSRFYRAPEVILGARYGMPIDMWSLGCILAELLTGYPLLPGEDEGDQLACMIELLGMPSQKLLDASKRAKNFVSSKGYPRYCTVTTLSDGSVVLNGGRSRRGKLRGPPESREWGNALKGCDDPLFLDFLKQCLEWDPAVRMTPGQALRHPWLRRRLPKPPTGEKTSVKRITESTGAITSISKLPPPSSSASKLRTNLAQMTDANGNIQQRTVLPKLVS

Assays:
Test in all cases: kinase-Nluc reporter destabilization hit call (1 = scored as downregulated) (binary); higher = compound decreases kinase abundance
Conditions in all cases: K562; 2-18 h
BRAF_V600E = system: BRAF_V600E
BTK = BTK (UniProt Q06187)
CAMK2A = CAMK2A (UniProt Q9UQM7)
CAMK2G = CAMK2G (UniProt Q13555)
CDK10 = CDK10 (UniProt Q15131)
CDK2 = CDK2 (UniProt P24941)
CDK3 = CDK3 (UniProt Q00526)
CDK4 = CDK4 (UniProt P11802)
CDK5 = CDK5 (UniProt Q00535)
CDK6 = CDK6 (UniProt Q00534)
CDK7 = CDK7 (UniProt P50613)
CDK9 = CDK9 (UniProt P50750)
CHEK2 = CHEK2 (UniProt O96017)
CSF1R = CSF1R (UniProt P07333)
CSK = CSK (UniProt P41240)
CSNK1A1 = CSNK1A1 (UniProt P48729)
CSNK1D = CSNK1D (UniProt P48730)
DDR1 = DDR1 (UniProt Q08345)
DYRK1B = DYRK1B (UniProt Q9Y463)
DYRK2 = DYRK2 (UniProt Q92630)

Measured: kinase-Nluc reporter destabilization hit call

COc1ccc(CC(=O)Nc2nc3c(s2)CCc2ccccc2-3)cc1OC (10 µM)
inactive: BRAF_V600E 0 | BTK 0 | CAMK2A 0 | CAMK2G 0 | CDK10 = 0 | CDK2 = 0 | CDK3 = 0 | CDK4 = 0 | CDK5 = 0 | CDK6 = 0 | CDK7 = 0 | CDK9 = 0 | CHEK2 = 0 | CSF1R 0 | CSK 0 | CSNK1A1 = 0 | CSNK1D 0 | DDR1 = 0 | DYRK1B 0 | DYRK2 = 0

O=C(NCCO)c1ccc2c(c1)nc(Nc1cccc(Cl)c1)c1ccncc12 [CK2 inhibitor 2] (10 µM)
inactive: BRAF_V600E 0 | BTK 0 | CAMK2A 0 | CAMK2G 0 | CDK10 = 0 | CDK2 = 0 | CDK3 = 0 | CDK4 = 0 | CDK5 = 0 | CDK6 = 0 | CDK7 = 0 | CDK9 = 0 | CHEK2 = 0 | CSF1R 0 | CSK 0 | CSNK1A1 = 0 | CSNK1D 0 | DDR1 = 0 | DYRK1B 0 | DYRK2 = 0

CC1CN(C(=O)Nc2ccc(Cl)c(Cl)c2)C(=Nc2ccc(F)cc2)S1 (stereo not given) (10 µM)
inactive: BRAF_V600E 0 | BTK 0 | CAMK2A 0 | CAMK2G 0 | CDK10 = 0 | CDK2 = 0 | CDK3 = 0 | CDK4 = 0 | CDK5 = 0 | CDK6 = 0 | CDK7 = 0 | CDK9 = 0 | CHEK2 = 0 | CSF1R 0 | CSK 0 | CSNK1A1 = 0 | CSNK1D 0 | DDR1 = 0 | DYRK1B 0 | DYRK2 = 0

COc1ccc(C(=O)Nc2sc3c(c2C(N)=O)CCCC3)cc1OC (10 µM)
inactive: BRAF_V600E 0 | BTK 0 | CAMK2A 0 | CAMK2G 0 | CDK10 = 0 | CDK2 = 0 | CDK3 = 0 | CDK4 = 0 | CDK5 = 0 | CDK6 = 0 | CDK7 = 0 | CDK9 = 0 | CHEK2 = 0 | CSF1R 0 | CSK 0 | CSNK1A1 = 0 | CSNK1D 0 | DDR1 = 0 | DYRK1B 0 | DYRK2 = 0

Cn1nccc1Nc1nccc(-c2cc3c(s2)C(C)(C)N(CCN2CCOCC2)C3=O)n1 (10 µM)
inactive: BRAF_V600E 0 | BTK 0 | CAMK2A 0 | CAMK2G 0 | CDK10 = 0 | CDK2 = 0 | CDK3 = 0 | CDK4 = 0 | CDK5 = 0 | CDK6 = 0 | CDK7 = 0 | CDK9 = 0 | CHEK2 = 0 | CSF1R 0 | CSK 0 | CSNK1A1 = 0 | CSNK1D 0 | DDR1 = 0 | DYRK1B 0 | DYRK2 = 0

COc1c(NC(=O)C(=O)c2ccc(OCCN3CCOCC3)c3ccccc23)cc(C(C)(C)C)cc1NS(C)(=O)=O (2.5 µM)
inactive: BRAF_V600E 0 | BTK 0 | CAMK2A 0 | CAMK2G 0 | CDK10 = 0 | CDK2 = 0 | CDK3 = 0 | CDK4 = 0 | CDK5 = 0 | CDK6 = 0 | CDK7 = 0 | CDK9 = 0 | CHEK2 = 0 | CSF1R 0 | CSK 0 | CSNK1A1 = 0 | CSNK1D 0 | DDR1 = 0 | DYRK1B 0 | DYRK2 = 0

Nc1ncnc2c1c(-c1ccc(Oc3ccccc3)cc1)nn2C1CCNCC1 [N-piperidine Ibrutinib (hydrochloride)] (10 µM)
inactive: BRAF_V600E 0 | BTK 0 | CAMK2A 0 | CAMK2G 0 | CDK10 = 0 | CDK2 = 0 | CDK3 = 0 | CDK4 = 0 | CDK5 = 0 | CDK6 = 0 | CDK7 = 0 | CDK9 = 0 | CHEK2 = 0 | CSF1R 0 | CSK 0 | CSNK1A1 = 0 | CSNK1D 0 | DDR1 = 0 | DYRK1B 0 | DYRK2 = 0

CC(=O)c1c(C)c2cnc(Nc3ccc(N4CCN(CCCCNC(=O)COc5cccc6c5C(=O)N(C5CCC(=O)NC5=O)C6=O)CC4)cn3)nc2n(C2CCCC2)c1=O (stereo not given) (10 µM)
inactive: BRAF_V600E 0 | BTK 0 | CAMK2A 0 | CAMK2G 0 | CDK10 = 0 | CDK2 = 0 | CDK3 = 0 | CDK4 = 0 | CDK5 = 0 | CDK6 = 0 | CDK7 = 0 | CDK9 = 0 | CHEK2 = 0 | CSF1R 0 | CSK 0 | CSNK1A1 = 0 | CSNK1D 0 | DDR1 = 0 | DYRK1B 0 | DYRK2 = 0

CCN1CCN(Cc2ccc(Nc3ncc(F)c(-c4cc(F)c5nc(CO)n(C(C)C)c5c4)n3)nc2)CC1 [Abemaciclib metabolite M20] (2 µM)
inactive: BRAF_V600E 0 | BTK 0 | CAMK2A 0 | CAMK2G 0 | CDK10 = 0 | CDK2 = 0 | CDK3 = 0 | CDK4 = 0 | CDK5 = 0 | CDK6 = 0 | CDK7 = 0 | CDK9 = 0 | CHEK2 = 0 | CSF1R 0 | CSK 0 | CSNK1A1 = 0 | CSNK1D 0 | DDR1 = 0 | DYRK1B 0 | DYRK2 = 0

Cc1c(NC(=O)OC[C@@H]2COCCN2)cn2ncnc(Nc3ccc4c(cnn4Cc4cccc(F)c4)c3)c12 (10 µM)
inactive: BRAF_V600E 0 | BTK 0 | CAMK2A 0 | CAMK2G 0 | CDK10 = 0 | CDK2 = 0 | CDK3 = 0 | CDK4 = 0 | CDK5 = 0 | CDK6 = 0 | CDK7 = 0 | CDK9 = 0 | CHEK2 = 0 | CSF1R 0 | CSK 0 | CSNK1A1 = 0 | CSNK1D 0 | DDR1 = 0 | DYRK1B 0 | DYRK2 = 0

O=C(/C=C/c1ccc(O)c(O)c1)OC1CC(OC(=O)/C=C/c2ccc(O)c(O)c2)(C(=O)O)CC(O)C1O (stereo not given) [1,3-Dicaffeoylquinic acid] (10 µM)
inactive: BRAF_V600E 0 | BTK 0 | CAMK2A 0 | CAMK2G 0 | CDK10 = 0 | CDK2 = 0 | CDK3 = 0 | CDK4 = 0 | CDK5 = 0 | CDK6 = 0 | CDK7 = 0 | CDK9 = 0 | CHEK2 = 0 | CSF1R 0 | CSK 0 | CSNK1A1 = 0 | CSNK1D 0 | DDR1 = 0 | DYRK1B 0 | DYRK2 = 0

CNC(=O)Nc1ccc(-c2cc(-c3ccnc(Nc4ccc(C)c(S(=O)(=O)N(C)C)c4)n3)ccn2)cc1 [hSMG-1 inhibitor 11e] (2.5 µM)
inactive: BRAF_V600E 0 | BTK 0 | CAMK2A 0 | CAMK2G 0 | CDK10 = 0 | CDK2 = 0 | CDK3 = 0 | CDK4 = 0 | CDK5 = 0 | CDK6 = 0 | CDK7 = 0 | CDK9 = 0 | CHEK2 = 0 | CSF1R 0 | CSK 0 | CSNK1A1 = 0 | CSNK1D 0 | DDR1 = 0 | DYRK1B 0 | DYRK2 = 0

CN(CC(=O)N(Cc1ccc(C2CCCCC2)cc1)c1ccc(C(=O)O)cc1)S(=O)(=O)c1c(F)c(F)c(F)c(F)c1F (2.5 µM)
inactive: BRAF_V600E 0 | BTK 0 | CAMK2A 0 | CAMK2G 0 | CDK10 = 0 | CDK2 = 0 | CDK3 = 0 | CDK4 = 0 | CDK5 = 0 | CDK6 = 0 | CDK7 = 0 | CDK9 = 0 | CHEK2 = 0 | CSF1R 0 | CSK 0 | CSNK1A1 = 0 | CSNK1D 0 | DDR1 = 0 | DYRK1B 0 | DYRK2 = 0

C/C(=C1/C(=O)Nc2ccc(NC(N)=O)cc21)c1ccc[nH]1 (10 µM)
inactive: BRAF_V600E 0 | BTK 0 | CAMK2A 0 | CAMK2G 0 | CDK10 = 0 | CDK2 = 0 | CDK3 = 0 | CDK4 = 0 | CDK5 = 0 | CDK6 = 0 | CDK7 = 0 | CDK9 = 0 | CHEK2 = 0 | CSF1R 0 | CSK 0 | CSNK1A1 = 0 | CSNK1D 0 | DDR1 = 0 | DYRK1B 0 | DYRK2 = 0

Cc1ccc(NC(=S)NNc2c([N+](=O)[O-])cc(C(F)(F)F)cc2[N+](=O)[O-])cc1Cl (10 µM)
inactive: BRAF_V600E 0 | BTK 0 | CAMK2A 0 | CAMK2G 0 | CDK10 = 0 | CDK2 = 0 | CDK3 = 0 | CDK4 = 0 | CDK5 = 0 | CDK6 = 0 | CDK7 = 0 | CDK9 = 0 | CHEK2 = 0 | CSF1R 0 | CSK 0 | CSNK1A1 = 0 | CSNK1D 0 | DDR1 = 0 | DYRK1B 0 | DYRK2 = 0

CN1CCN(c2ccc(Nc3ncc4nc(Nc5ccccc5)n([C@@H]5CCN(S(=O)(=O)C6CC6)C5)c4n3)cc2)CC1 (2.5 µM)
inactive: BRAF_V600E 0 | BTK 0 | CAMK2A 0 | CAMK2G 0 | CDK10 = 0 | CDK2 = 0 | CDK3 = 0 | CDK4 = 0 | CDK5 = 0 | CDK6 = 0 | CDK7 = 0 | CDK9 = 0 | CHEK2 = 0 | CSF1R 0 | CSK 0 | CSNK1A1 = 0 | CSNK1D 0 | DDR1 = 0 | DYRK1B 0 | DYRK2 = 0

CNCc1ccccc1-c1csc([C@@H](C)Nc2nc(C)nc3cc(OC)c(OC)cc23)c1 (2.5 µM)
inactive: BRAF_V600E 0 | BTK 0 | CAMK2A 0 | CAMK2G 0 | CDK10 = 0 | CDK2 = 0 | CDK3 = 0 | CDK4 = 0 | CDK5 = 0 | CDK6 = 0 | CDK7 = 0 | CDK9 = 0 | CHEK2 = 0 | CSF1R 0 | CSK 0 | CSNK1A1 = 0 | CSNK1D 0 | DDR1 = 0 | DYRK1B 0 | DYRK2 = 0

COc1ccc([C@H]2c3[nH]c4ccc(Cl)cc4c3CCN2C(=O)Oc2ccc(Cl)cc2)cc1 (2.5 µM)
inactive: BRAF_V600E 0 | BTK 0 | CAMK2A 0 | CAMK2G 0 | CDK10 = 0 | CDK2 = 0 | CDK3 = 0 | CDK4 = 0 | CDK5 = 0 | CDK6 = 0 | CDK7 = 0 | CDK9 = 0 | CHEK2 = 0 | CSF1R 0 | CSK 0 | CSNK1A1 = 0 | CSNK1D 0 | DDR1 = 0 | DYRK1B 0 | DYRK2 = 0
